Measurements from patent US10201523B2, “Use of wilforlide A for overcoming chemotherapy resistance” (WESTERN UNIVERSITY OF HEALTH SCIENCES, priority 2013, dated 2019).
Several values for one entry are separate records, joined by “and”; a condition that tells them apart may be missing. Identical values can stand only once. Further values from the same series stand in other lists.

System: PC3
Experiment: SRB cell viability assay, docetaxel with/without wilforlide A pretreatment
Settings: background = 0.044

CC(=O)O[C@@]12CO[C@@H]1C[C@H](O)[C@@]1(C)C(=O)[C@H](O)C3=C(C)[C@@H](OC(=O)[C@H](O)[C@@H](NC(=O)OC(C)(C)C)c4ccccc4)C[C@@](O)([C@@H](OC(=O)c4ccccc4)[C@H]21)C3(C)C [docetaxel]
A at 565 nm (no wilforlide A pre-Tx (control of Table 8), docetaxel 0.001 nM 72 h): 2.050 and 2.018 and 1.900 | A at 565 nm (no wilforlide A pre-Tx (control of Table 8), docetaxel 0.1 nM 72 h): 1.999 and 2.079 and 1.964 | A at 565 nm (no wilforlide A pre-Tx (control of Table 8), docetaxel 0.333 nM 72 h): 1.864 and 1.989 and 1.823 | A at 565 nm (no wilforlide A pre-Tx (control of Table 8), docetaxel 1 nM 72 h): 1.379 and 1.513 and 1.358 | A at 565 nm (no wilforlide A pre-Tx (control of Table 8), docetaxel 3.33 nM 72 h): 0.885 and 0.969 and 0.877 | A at 565 nm (no wilforlide A pre-Tx (control of Table 8), docetaxel 10 nM 72 h): 0.460 and 0.475 and 0.437 | A at 565 nm (no wilforlide A pre-Tx (control of Table 8), docetaxel 33.3 nM 72 h): 0.366 and 0.328 | A at 565 nm (no wilforlide A pre-Tx (control of Table 8), docetaxel 100 nM 72 h): 0.348 and 0.341 | A at 565 nm (wilforlide A 2.5 μg/ml pre-Tx, docetaxel 0.001 nM 72 h): 1.702 and 1.735 and 1.819 | A at 565 nm (wilforlide A 2.5 μg/ml pre-Tx, docetaxel 0.1 nM 72 h): 1.738 and 1.806 and 1.812 | A at 565 nm (wilforlide A 2.5 μg/ml pre-Tx, docetaxel 0.333 nM 72 h): 1.640 and 1.632 | A at 565 nm (wilforlide A 2.5 μg/ml pre-Tx, docetaxel 1 nM 72 h): 1.206 and 1.259 | A at 565 nm (wilforlide A 2.5 μg/ml pre-Tx, docetaxel 3.33 nM 72 h): 0.779 and 0.717 | A at 565 nm (wilforlide A 2.5 μg/ml pre-Tx, docetaxel 10 nM 72 h): 0.425 and 0.381 | A at 565 nm (wilforlide A 2.5 μg/ml pre-Tx, docetaxel 33.3 nM 72 h): 0.333 and 0.317 | A at 565 nm (wilforlide A 2.5 μg/ml pre-Tx, docetaxel 100 nM 72 h): 0.330 and 0.316
